Reference: paper doi:10.1101/2022.05.26.493655
Results are given in words; binding and its absence hold for the method and conditions named. In cells and extracts the contact can be indirect. These calls come from enrichment with a bait or labelling near it, and not all partners need be listed. Sequences can lack the tags named with a protein.

Protein sequences, listed by entry. Tags and fused reporters are not part of them.
UniProt Q15024: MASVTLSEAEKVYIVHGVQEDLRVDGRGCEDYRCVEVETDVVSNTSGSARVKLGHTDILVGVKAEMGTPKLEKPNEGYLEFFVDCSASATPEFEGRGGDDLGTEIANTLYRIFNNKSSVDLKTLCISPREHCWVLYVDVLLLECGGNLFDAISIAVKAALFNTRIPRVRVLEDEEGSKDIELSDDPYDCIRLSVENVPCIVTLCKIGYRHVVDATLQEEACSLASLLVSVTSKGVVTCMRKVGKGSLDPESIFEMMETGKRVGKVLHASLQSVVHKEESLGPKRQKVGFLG
UniProt Q13601: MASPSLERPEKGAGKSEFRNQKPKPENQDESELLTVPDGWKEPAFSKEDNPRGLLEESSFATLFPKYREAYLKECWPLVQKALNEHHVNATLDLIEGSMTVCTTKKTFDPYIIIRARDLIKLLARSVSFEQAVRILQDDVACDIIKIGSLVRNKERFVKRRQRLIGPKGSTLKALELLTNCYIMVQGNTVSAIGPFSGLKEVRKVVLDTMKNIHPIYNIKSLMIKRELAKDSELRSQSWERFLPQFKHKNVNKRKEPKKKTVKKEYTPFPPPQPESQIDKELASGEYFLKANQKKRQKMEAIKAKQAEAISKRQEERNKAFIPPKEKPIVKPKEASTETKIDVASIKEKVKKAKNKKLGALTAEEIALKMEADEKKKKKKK

T1: GFP-ZNF692 WT (zinc finger protein 692), expressed in HCT116 cells (human) (UniProt Q9BU19)
T1 sequence: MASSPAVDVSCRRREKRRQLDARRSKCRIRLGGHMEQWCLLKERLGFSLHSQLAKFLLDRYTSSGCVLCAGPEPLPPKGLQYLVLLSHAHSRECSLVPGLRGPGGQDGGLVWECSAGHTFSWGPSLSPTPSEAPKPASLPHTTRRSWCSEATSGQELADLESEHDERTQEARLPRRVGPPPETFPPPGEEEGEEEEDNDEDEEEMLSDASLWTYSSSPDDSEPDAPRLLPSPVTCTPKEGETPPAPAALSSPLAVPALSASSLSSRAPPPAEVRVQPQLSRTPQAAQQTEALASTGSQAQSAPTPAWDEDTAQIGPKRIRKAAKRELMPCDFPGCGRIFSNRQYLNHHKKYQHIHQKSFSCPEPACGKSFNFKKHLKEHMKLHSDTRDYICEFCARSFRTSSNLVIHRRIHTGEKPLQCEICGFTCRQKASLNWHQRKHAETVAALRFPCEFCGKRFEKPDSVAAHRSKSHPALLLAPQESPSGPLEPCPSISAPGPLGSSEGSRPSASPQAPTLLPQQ

B1: NOP2 (protein, UniProt P46087 1-812)
chain: MGRKLDPTKEKRGPGRKARKQKGAETELVRFLPAVSDENSKRLSSRARKRAAKRRLGSVEAPKTNKSPEAKPLPGKLPKGISAGAVQTAGKKGPQSLFNAPRGKKRPAPGSDEEEEEEDSEEDGMVNHGDLWGSEDDADTVDDYGADSNSEDEEEGEALLPIERAARKQKAREAAAGIQWSEEETEDEEEEKEVTPESGPPKVEEADGGLQINVDEEPFVLPPAGEMEQDAQAPDLQRVHKRIQDIVGILRDFGAQREEGRSRSEYLNRLKKDLAIYYSYGDFLLGKLMDLFPLSELVEFLEANEVPRPVTLRTNTLKTRRRDLAQALINRGVNLDPLGKWSKTGLVVYDSSVPIGATPEYLAGHYMLQGASSMLPVMALAPQEHERILDMCCAPGGKTSYMAQLMKNTGVILANDANAERLKSVVGNLHRLGVTNTIISHYDGRQFPKVVGGFDRVLLDAPCSGTGVISKDPAVKTNKDEKDILRCAHLQKELLLSAIDSVNATSKTGGYLVYCTCSITVEENEWVVDYALKKRNVRLVPTGLDFGQEGFTRFRERRFHPSLRSTRRFYPHTHNMDGFFIAKFKKFSNSIPQSQTGNSETATPTNVDLPQVIPKSENSSQPAKKAKGAAKTKQQLQKQQHPKKASFQKLNGISKGADSELSTVPSVTKTQASSSFQDSSQPAGKAEGIREPKVTGKLKQRSPKLQSSKKVAFLRQNAPPKGTDTQTPAVLSPSKTQATLKPKDHHQPLGRAKGVEKQQLPEQPFEKAAFQKQNDTPKGPQPPTVSPIRSSRPPPAKRKKSQSRGNSQLLLS
B2: IMP3 (protein, UniProt Q9NV31 1-184)
chain: MVRKLKFHEQKLLKQVDFLNWEVTDHNLHELRVLRRYRLQRREDYTRYNQLSRAVRELARRLRDLPERDQFRVRASAALLDKLYALGLVPTRGSLELCDFVTASSFCRRRLPTVLLKLRMAQHLQAAVAFVEQGHVRVGPDVVTDPAFLVTRSMEDFVTWVDSSKIKRHVLEYNEERDDFDLEA
B3: RCL1 (protein, UniProt Q9Y2P8 1-373)
chain: MATQAHSLSYAGCNFLRQRLVLSTLSGRPVKIRKIRARDDNPGLRDFEASFIRLLDKITNGSRIEINQTGTTLYYQPGLLYGGSVEHDCSVLRGIGYYLESLLCLAPFMKHPLKIVLRGVTNDQVDPSVDVLKATALPLLKQFGIDGESFELKIVRRGMPPGGGGEVVFSCPVRKVLKPIQLTDPGKIKRIRGMAYSVRVSPQMANRIVDSARSILNKFIPDIYIYTDHMKGVNSGKSPGFGLSLVAETTSGTFLSAELASNPQGQGAAVLPEDLGRNCARLLLEEIYRGGCVDSTNQSLALLLMTLGQQDVSKVLLGPLSPYTIEFLRHLKSFFQIMFKIETKPCGEELKGGDKVLMTCVGIGFSNLSKTLK

Molecular target: T1, GFP-ZNF692 WT (zinc finger protein 692), expressed in HCT116 cells (human)
Experiment: affinity purification with mass spectrometry

binding, binds:
EXOSC7 (from UniProt Q15024 1-291)
KRR1 (from UniProt Q13601 1-381)
B1
B2
B3
